This note sets out measurements from paper PMC4470285, “A cell cycle-controlled redox switch regulates the topoisomerase IV activity” (Genes & Development, 2015).

Sequences of proteins named here, by UniProt entry; tags and fusion partners are left off. A change or cut given only in a name is not applied to a line headed by its entry.
UniProt A0A0H3C9E0: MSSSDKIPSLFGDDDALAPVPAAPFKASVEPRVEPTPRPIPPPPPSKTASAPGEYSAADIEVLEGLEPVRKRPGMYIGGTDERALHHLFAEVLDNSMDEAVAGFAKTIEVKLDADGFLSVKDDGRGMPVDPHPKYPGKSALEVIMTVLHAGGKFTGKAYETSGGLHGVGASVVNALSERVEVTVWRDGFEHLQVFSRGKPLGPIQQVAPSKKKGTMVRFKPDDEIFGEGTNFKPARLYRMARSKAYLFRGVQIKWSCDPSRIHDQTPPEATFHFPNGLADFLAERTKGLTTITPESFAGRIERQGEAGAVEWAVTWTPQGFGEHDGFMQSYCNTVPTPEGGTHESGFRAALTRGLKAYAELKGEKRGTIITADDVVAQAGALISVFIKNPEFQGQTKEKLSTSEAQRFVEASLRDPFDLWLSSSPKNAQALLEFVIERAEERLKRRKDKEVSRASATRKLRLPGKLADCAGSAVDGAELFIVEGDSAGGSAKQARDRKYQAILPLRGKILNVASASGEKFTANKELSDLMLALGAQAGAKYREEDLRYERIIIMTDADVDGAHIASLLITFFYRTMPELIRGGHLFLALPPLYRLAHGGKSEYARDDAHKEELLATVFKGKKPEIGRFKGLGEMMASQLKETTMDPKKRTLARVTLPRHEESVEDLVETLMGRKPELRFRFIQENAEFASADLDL
UniProt A0A0H3CC90: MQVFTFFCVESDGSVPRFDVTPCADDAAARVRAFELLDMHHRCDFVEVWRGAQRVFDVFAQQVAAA

These are yes or no findings as the source states them, for the method shown. Binding can be weak; no strength is given. For some assays here: Binding seen in cells or lysates may run through a third protein.

For one assay, the target named is NstA-TAP (C. crescentus). Put plainly: pull-down; in vivo copurification: tandem affinity purification of TAP-tagged NstA from extracts of C. crescentus cells harboring parC-gfp or gfp-parE; immunoblot with anti-GFP; empty vector as control. (A western blot detects proteins with antibodies after separation by electrophoresis.)
Assay [1] addresses purified ParC (C. crescentus). Put plainly: far-Western, overlay or dot blot; blot containing 0.1 nM ParC, ParE or BSA incubated with 25 nM purified His6-SUMO-NstA and probed with monoclonal hexa-histidine antibody; both purified.

Turning to GFP-ParE (from UniProt A0A0H3C9E0), the binding result in the assay with NstA-TAP (C. crescentus) was “binds”.

For the substance “His6-SUMO-NstA (from UniProt A0A0H3CC90)”, the binding entry in assay [1] is listed as “binds”.
